In all, about 230,000 compounds went through this assay and about 310 (0.13%) were called active. The shares of active, inactive and inconclusive entries below differ from those in the screen. Calls follow the shape of the dose curve; as a rule, active = well fitted activation curve with a large enough effect; inconclusive = small, poorly fitted or top-dose-only effect; inactive = no such curve, though single readings can be large or run the other way. Potencies of inconclusive entries are doubtful fits and often do not repeat.
Experiment: qHTS Multiplex Assay to Identify Dual Action Probes in a Cell Model of Huntington: Cytoprotection (ATP); also: nearly all actives have a fitted effect of over 45% in size;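 as to cytoprotection (ATP increase): toxic huntingtin expression switched on by the ecdysone agonist tebufenozide; % of control where 0% means no effect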
Settings: PC12 HTT-Q103 induced, ATP luminescence, 40 h; cytoprotection (ATP increase): at 56.4 µM (top of the series) unless noted
Method in brief: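 Compounds added alongside 100 nM tebufenozide, which induces toxic Q103 huntingtin exon 1-GFP in stable PC12 cells; surviving cells quantified by luminescent ATP measurement. Medium: phenol red-free DMEM, 5% equine and 5% calf serum.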
Potency is read from the fitted curve at half-maximal effect.

SMILES	Potency	cytoprotection (ATP increase)
NC(=O)c1ccc[n+](CC(=O)OCCC23CC4CC(CC(C4)C2)C3)c1	inconclusive: 2510 nM [activator, partial curve]	
Nc1nnnn1/N=C\c1ccc(Cl)c([N+](=O)[O-])c1	inconclusive: 3550 nM [activator, partial curve]	
O=C(COc1ccccc1[N+](=O)[O-])Nc1cc(C(=O)O)cc(C(=O)O)c1	inconclusive: 5620 nM [activator, single point]	
CS(=O)(=O)N1CCC(C(=O)N2CCN(c3ccc(F)cc3)CC2)CC1	inconclusive: 3160 nM [activator, single point]	
CCC(=O)N[C@@H]1Cc2ccccc2[C@@H](c2ccccc2)C1	inconclusive: 10000 nM [activator, partial curve]	
CC1(C)S[C@@H]2[C@H](NC(=O)C3(N)CCCCC3)C(=O)N2[C@H]1C(=O)O	inconclusive: 891 nM [activator, full curve, poor fit]	
CN(C)c1ccc(/C=N/NC(=O)COc2ccccc2)cc1	inconclusive: 1120 nM [activator, single point]	
O=C(O)C(Cc1ccccc1)N1CCS(=O)(=O)CC1 (stereo unspecified)	active: 2000 nM	
Cc1ccc(-n2c(Cc3cccc4ccccc34)n[nH]c2=S)c(C)c1	inconclusive: 50.1 nM [activator, full curve, poor fit]	
Cc1cc(C)c(N=C2SCC(=O)N2Cc2ccco2)c(C)c1	inconclusive: 562 nM [activator, single point]	
O=C(CN1CCN(c2ccc(O)cc2)CC1)Nc1cc(S(=O)(=O)N2CCOCC2)ccc1Cl	inconclusive: 112 nM [activator, partial curve, poor fit]	
CCC1(C)C(Nc2c(C)cccc2C)=NC(=S)N1c1ccc(NC(C)=O)cc1 (stereo unspecified)		inactive: 14.9% [at 10 µM]
COc1ccccc1NC(=O)/C(C#N)=C/c1cc([N+](=O)[O-])ccc1N1CCCC1	active: 3980 nM	
Cc1ccc(NC=C(S(=O)(=O)c2ccccc2)S(=O)(=O)c2ccccc2)cc1	inconclusive: 794 nM [activator, partial curve]	
CCc1c(O)cc2n(c1=O)-c1ccc(Cl)cc1C2(C)C		inactive: 3.15% [at 10 µM]
Cc1nc2ccc(C(=O)c3ccccc3)cc2[nH]1	inactive	
CC(C(=O)NCCc1ccc(F)cc1)N1CCN(Cc2ccccc2)CC1 (stereo unspecified)	inconclusive: 501 nM [activator, full curve, poor fit]	
COc1ccc2nc(/N=C\N(C)C)sc2c1	inactive	
CCN(CC)C1=N/C(=C\c2ccco2)C(=O)N1c1ccccc1		inactive: -13.6% [at 10 µM]
CC(N)CCCC(C)(C)O (stereo unspecified)	inconclusive: 316 nM [activator, partial curve]	
CCCCC[C@H](O)/C=C/[C@@H]1[C@H]2C/C(=C/CCCC(=O)O)C[C@H]2C[C@H]1O	inactive	
COc1nccnc1NS(=O)(=O)c1ccc(N)cc1	inconclusive: 100 nM [activator, full curve, poor fit]	

Exported as a markdown table: 5 of the compounds above

| SMILES | Potency | cytoprotection (ATP increase) |
| --- | --- | --- |
| CS(=O)(=O)N1CCC(C(=O)N2CCN(c3ccc(F)cc3)CC2)CC1 | inconclusive: 3160 nM [activator, single point] |  |
| CCC(=O)N[C@@H]1Cc2ccccc2[C@@H](c2ccccc2)C1 | inconclusive: 10000 nM [activator, partial curve] |  |
| CC1(C)S[C@@H]2[C@H](NC(=O)C3(N)CCCCC3)C(=O)N2[C@H]1C(=O)O | inconclusive: 891 nM [activator, full curve, poor fit] |  |
| CN(C)c1ccc(/C=N/NC(=O)COc2ccccc2)cc1 | inconclusive: 1120 nM [activator, single point] |  |
| O=C(O)C(Cc1ccccc1)N1CCS(=O)(=O)CC1 (stereo unspecified) | active: 2000 nM |  |

Remaining list, next part:

SMILES	Potency	cytoprotection (ATP increase)
CCOC(=O)C1=C2NC(=O)c3ccccc3N2C(=O)C1	inconclusive: 355 nM [activator, single point]	
FC(F)(F)c1cc(NC(=S)Nc2ccc3ccccc3c2)cc(C(F)(F)F)c1	inconclusive: 8910 nM [activator, partial curve, poor fit]	
Cn1c(N)c(C(=O)COC(=O)C2CC(=O)N(Cc3ccccc3)C2)c(=O)n(C)c1=O (stereo unspecified)	inconclusive: 7.9 nM [activator, full curve, poor fit]	
O=C(c1ccco1)N1CCC2(CC1)CCN(c1cccc(-c3ccccc3)c1)CC2	inconclusive: 1120 nM [activator, partial curve, poor fit]	
CN(C)/C=N/c1c(C#N)cnn1C	inactive	
COc1ccc(CCNC(=O)c2cc(=O)[nH]c3ccc(Br)cc23)cc1OC		inactive: 8.79% [at 10 µM]
C1CCc2nnnn2CC1	inconclusive: 3160 nM [activator, single point]	
CCN(CC)c1ccc(/C=N/N2CCN(Cc3ccc(C)cc3)CC2)c(O)c1	inactive	
CC12CC3(C)CC(C)(C1)CC(C(=O)Nc1nn[nH]n1)(C2)C3	inconclusive: 316 nM [activator, partial curve]	
COc1ccccc1/C=C/C(=O)c1c2c(c(C)[nH]c1=O)CCCC2	inconclusive: 14100 nM [activator, single point]	
CO[C@]1(NC(=O)C2SC(=C(C(N)=O)C(=O)O)S2)C(=O)N2C(C(=O)O)=C(CSc3nnnn3C)CS[C@H]21 (stereo partly specified)	inconclusive: 1000 nM [activator, single point]	
O=C(N/N=C\c1cccs1)c1sccc1-n1cccc1	inactive	
Cc1cc(C)n(-c2nc(Nc3ccccc3C(F)(F)F)nc(-n3nc(C)cc3C)n2)n1		inactive: 11.2% [at 1.9 µM]
CCCN=C(N)/C(C(=O)OCC)=C(\O)c1ccc(OC)cc1	inconclusive: 31600 nM [activator, single point]	
CCn1nnnc1SCC(=O)Nc1cccc(NC(C)=O)c1	inactive	
Cc1ccc(S(=O)(=O)NC(=O)Nc2c(C)n(C)n(-c3ccccc3)c2=O)cc1		inactive: 8.9% [at 10 µM]
CCCCC1=CC2=CC(=O)C(C)(OC(=O)c3cccs3)C(=O)C2=CO1 (stereo unspecified)	inconclusive: 5620 nM [activator, partial curve]	
C[N+]1(C2CCC3CCC2C3O)CCCC1 (stereo unspecified)	inconclusive: 112 nM [activator, partial curve, poor fit]	
CCOC(=O)C1CCCN(c2c(NCCc3ccc(C)cc3)c(=O)c2=O)C1 (stereo unspecified)	inconclusive: 1000 nM [activator, full curve, poor fit]	
Brc1cccc(OCCN2CCCCC2)c1		inactive: 14.6% [at 10 µM]
COc1cccc(-n2c(SCC(=O)N3c4ccccc4CC3C)nnc2-c2ccco2)c1 (stereo unspecified)	inactive	
COc1ccccc1-n1nnnc1S(=O)(=O)Cc1ccc(Cl)cc1	active: 25100 nM	

SMILES	Potency	cytoprotection (ATP increase)
COc1ccc(C2NC(=S)NC3=C2CCCC3=C2SCCS2)cc1 (stereo unspecified)	inconclusive: 25100 nM [activator, partial curve, poor fit]	
O=C(O)COCCN1CCN([C@@H](c2ccccc2)c2ccc(Cl)cc2)CC1	inconclusive: 89.1 nM [activator, full curve]	
COC(=O)c1ccc(NC(=O)CCN2CCN(Cc3ccccc3)CC2)cc1	inconclusive: 4470 nM [activator, partial curve]	
C=CCNC(=O)/C(=C\C=C\c1ccccc1)NC(=O)c1ccc(OCCCC)cc1	inconclusive: 3550 nM [activator, single point]	
Cc1cc2c(s1)Nc1ccccc1N=C2N1CCN(C)CC1	inconclusive: 112 nM [activator, full curve, poor fit]	
COc1ccc(N(C(=O)Cc2cccs2)C2C=CS(=O)(=O)C2)cc1 (stereo unspecified)	inactive	
O=[N+]([O-])c1cccnc1N1CCCCC1	inconclusive: 35500 nM [activator, single point]	
CC1(C)C2C/C(=N\O)C(C)(/[N+]([O-])=C/c3cccc([N+](=O)[O-])c3)CC21 (stereo unspecified)	inconclusive: 12600 nM [activator, single point]	
CC[C@H]1OC(=O)[C@H](C)[C@@H](O[C@H]2C[C@@](C)(OC)[C@@H](O)[C@H](C)O2)C(C)[C@@H](O[C@@H]2O[C@H](C)C[C@H](N(C)C)[C@@H]2O)[C@](C)(OC)C[C@@H](C)C(=O)[C@H](C)[C@@H](O)[C@]1(C)O (stereo partly specified)	inconclusive: 100 nM [activator, full curve, poor fit]	
CC(Nc1oc(-c2ccccc2)nc1-c1ccccc1)c1ccccc1 (stereo unspecified)	inconclusive: 3550 nM [activator, single point]	
COC(=O)C1CCN(Cc2cn(Cc3ccccc3)nc2-c2cc3ccccc3o2)CC1	inconclusive: 3980 nM [activator, single point]	
CCCCC[C@H](O)/C=C/[C@H]1[C@H](O)CC(=O)[C@@H]1C/C=C\CCCC(=O)O	inconclusive: 39800 nM [activator, single point]	
S=c1[nH]nc(CCc2ccccc2)n1-c1ccccc1		inactive: -9.04% [at 10 µM]
S=C(NCCc1ccccc1)NCCc1ccccc1		inactive: 29.5% [at 0.074 µM]
COc1cc(C=C2C(=O)c3ccccc3C2=O)cc(OC)c1		inactive: 7.52% [at 10 µM]
O=S(=O)(CCc1ccccc1)c1nnnn1-c1ccccc1	inconclusive: 35500 nM [activator, single point]	
COc1ccc(Nc2ccc([N+](=O)[O-])cc2[N+](=O)[O-])cc1	inconclusive: 355 nM [activator, partial curve, poor fit]	
COc1ccc(CNC(=O)NC(C)(C)c2cccc(C(C)(C)NC(=O)NCc3ccc(OC)cc3)c2)cc1		inactive: 8.99% [at 10 µM]
CCOc1ccc2nc(SCC(=O)NCc3ccc(OC)c(OC)c3)[nH]c2c1	inconclusive: 5010 nM [activator, single point]	
CN(CC(=O)Nc1ccc(C#N)cc1)Cc1ccc(Cl)cc1		inactive: 16.1% [at 10 µM]
Cc1cccc(C)c1NC(=S)N(CCN(C)C)C(C)c1ccccn1 (stereo unspecified)	inconclusive: 112 nM [activator, full curve, poor fit]	
Cc1ccc(S(=O)(=O)N(C)C)cc1NC(=S)NCc1ccco1	inconclusive: 14100 nM [activator, single point]	

— PubChem BioAssay AID1471 (National Center for Advancing Translational Sciences (NCATS), 2008)
